Results: patent US8306752

By UniProt entry, the sequences of proteins in these tests, tags left out. Where a name states a change or a piece, a line headed by the entry shows the natural chain unless it says otherwise.
UniProt P0ACL9: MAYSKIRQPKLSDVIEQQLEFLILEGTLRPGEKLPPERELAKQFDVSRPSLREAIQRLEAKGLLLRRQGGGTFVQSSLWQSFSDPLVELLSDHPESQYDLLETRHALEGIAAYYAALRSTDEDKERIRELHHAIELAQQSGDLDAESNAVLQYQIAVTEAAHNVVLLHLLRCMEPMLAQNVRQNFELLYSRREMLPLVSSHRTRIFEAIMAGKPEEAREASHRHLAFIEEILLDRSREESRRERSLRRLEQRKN

Target: PdhR (Escherichia coli MG1655) (UniProt P0ACL9)
Experiment: binding assay
Conditions: ChIP-qPCR in LB + 0.2% glucose; t-test p 0.004, rank-sum p 0.1; 2 of 6 replicates extremely enriched; SEQ:7 is the fecA motif of FIG. 6D, ChIP amplicon not given; protein in cells

Sequence: GGAAAATAATTCTTATTTCGATTGTCCTTTTTACCCTTCTCGTTCGACTCAT (double strand) [fecA operon promoter region]
- binding result: binds

For at least one entry, the source does not settle the construct or the ends of the probe. Where cells or extracts were used, other partners may take part.
